From paper PMC1097722
No constants are given. Whether binding was seen depends on the method and setting. Some entries that bind do so weakly or less than the wild type.

Amino acid sequences for entries named in this document (tags omitted). Residues count along the entry.
UniProt P04618: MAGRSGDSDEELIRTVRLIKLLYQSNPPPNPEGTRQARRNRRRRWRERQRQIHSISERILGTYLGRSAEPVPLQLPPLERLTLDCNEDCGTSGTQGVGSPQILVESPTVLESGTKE
UniProt P67809, residues 186-324: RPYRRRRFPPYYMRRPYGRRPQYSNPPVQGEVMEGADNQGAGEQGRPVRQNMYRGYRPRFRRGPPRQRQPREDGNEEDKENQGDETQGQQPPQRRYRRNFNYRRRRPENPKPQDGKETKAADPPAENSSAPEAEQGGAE

Target: LexA-Rev bait (HIV-1 Rev, isolate HXB2, wild type) (HIV-1 isolate HXB2) (UniProt P04618)
Assay: two-hybrid

## 11.5.1 library prey (C-terminal 139 amino acids of human DNA binding protein B) (from UniProt P67809 186-324) (domain or fragment)
  binding: binds
